The source of these data is PMC10294612.

For test [1], the target named is T1, HIP-mAID-HA (TgHIP with a C-terminal miniAID-3HA tag) (Toxoplasma gondii (endogenous locus in RHΔKu80-Tir1)) (UniProt S8GK24).
T1 sequence: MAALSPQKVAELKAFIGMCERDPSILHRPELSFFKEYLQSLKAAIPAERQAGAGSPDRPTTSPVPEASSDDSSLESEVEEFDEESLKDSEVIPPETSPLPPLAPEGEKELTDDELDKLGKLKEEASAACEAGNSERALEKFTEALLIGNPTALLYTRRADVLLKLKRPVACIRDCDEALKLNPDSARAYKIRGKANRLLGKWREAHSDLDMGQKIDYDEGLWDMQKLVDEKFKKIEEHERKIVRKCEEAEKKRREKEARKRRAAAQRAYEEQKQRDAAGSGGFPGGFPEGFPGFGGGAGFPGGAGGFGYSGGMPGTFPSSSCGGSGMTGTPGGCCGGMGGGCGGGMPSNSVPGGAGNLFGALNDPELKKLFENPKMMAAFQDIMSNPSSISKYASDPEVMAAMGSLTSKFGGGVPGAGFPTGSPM
The experiment in a line: affinity purification with mass spectrometry; lysates of HIP-mAID-HA/HOOK-Ty or FTS-mAID-HA parasites (±IAA 24 h) in 1% Triton X-100-PBS; anti-HA or anti-Ty antibodies with Protein A-Sepharose, 4°C; eluate read by MS.

The target in test [2] is TgHOOK endogenously Ty-tagged in the HIP-mAID-HA strain (HOOK-Ty) (Toxoplasma gondii (endogenous locus in RHΔKu80-Tir1)). The description is as above.

These are yes or no findings as the source states them, for the method shown. In cells and extracts the contact can be indirect. Here binding means that the protein was enriched with, or labelled near, the bait; the list need not be complete. Tags and fused reporters may be left off the sequences shown.

Consider “TgHOOK endogenously Ty-tagged in the HIP-mAID-HA strain (HOOK-Ty)”, for which, in test [1], the binding entry was “binds”.

B1: HIP-mAID-HA (TgHIP with a C-terminal miniAID-3HA tag) (protein, UniProt S8GK24 1-425)
chain: T1 sequence
With B1, in test [2], the binding entry is recorded as “binds”.
